Measured values: article doi:10.1101/2022.06.06.495033

Biological target: Hrd1 (Arabidopsis) (Arabidopsis)
Test: affinity purification with mass spectrometry

binding: binds
B1: TIN1 found in the Hrd1 immunoprecipitate (protein, UniProt Q84JN2 26-424)
chain: LISSPDANPPYPKAISDLKESIVKGLGFQSEEVKVSGFDIRDALVGHSVSYEFDLEIDNKVLPFKLLEDVNRWEYVDLPIFQVEQPSENGLVPMRNKKTSSDDVLPVLAPFQLSGPMELWIQDANNMRLSLPYDVDAGVLKKVILADGAVVTVKGARSVSLRHPIDLPLPLNQSSNEFASGLLSLAEQLRRASTDQESPVLSLRIVGPTSLASTSQSPDNKLKLKRLAPGLVELSSMSKDKRSLSTIGANAMTTVLTPREFTTMWPITSINGSNANLLGFEKLLTSVLGPKAQEKGSFKVLKAKVAAQTFMKIGFGIEKKLKEADVEGLSFPEWRTKPETMRMHFEVLAKVDGENVIPENVMRVDPIPLEDTIAQNVITGNVTMSKLPIIESPPSPFTL

Results are given in words; binding and its absence hold for the method and conditions named. In cells and extracts the contact can be indirect. Here binding means that the protein was enriched with, or labelled near, the bait; the list need not be complete.
